# Source: the supplement of paper PMC8728848
# Some of the results follow.
# B1: SUN4 (Saccharomyces cerevisiae), P53616 (protein)
# chain: MGSSHHHHHHSSGLVPRGSHNGSIYGDLADFSGPYEKFEDGTIPCGQFPSGQGVIPISWLDEGGWSGVENTDTSTGGSCKEGSYCSYACQPGMSKTQWPSDQPSDGRSIGGLLCKDGYLYRSNTDTDYLCEWGVDAAYVVSELSNDVAICRTDYPGTENMVIPTYVQAGDSLPLTVVDQDTYYTWQGLKTSAQYYVNNAGISVEDACVWGSSSSGVGNWAPLNFGAGSSDGVAYLSLIPNPNNGNALNFNVKIVAADDSSTVNGECIYENGSFSGGSDGCTVSVTAGKAKFVLYN
# What was measured:
# Assay in all cases: glycan array binding signal (z-score within array); higher = stronger binding
# Details in all cases: glycan notation: IUPAC condensed, linker removed
# [1] = target: Gal3S(b1-3)[Fuc(a1-4)]GlcNAc
# Summary of the method: (§1)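 Glycan array binding is given as a within-array Z-score, which can be read as non-binding when negative. The arrays, 3228 of them, came from the Consortium for Functional Glycomics database and were retained only where the protein sequence was available. Z-scores were averaged across arrays of the same protein sequence at different concentrations or buffers and across linkers.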
# [2] = target: Gal3S(b1-4)Glc
# Summary of the method: as §1
# [3] = target: Gal3S(b1-4)Glc6S
# Summary of the method: as §1
# [4] = target: Gal3S(b1-4)GlcNAc
# Summary of the method: as §1
# [5] = target: Gal3S(b1-4)[Fuc(a1-3)]Glc6S
# Summary of the method: as §1
# [6] = target: Gal3S(b1-4)[Fuc(a1-3)]GlcNAc
# Summary of the method: as §1
# [7] = target: Gal3S(b1-4)[Fuc(a1-3)]GlcNAc6S
# Summary of the method: as §1
# [8] = target: Gal3S4S(b1-4)GlcNAc
# Summary of the method: as §1
# [9] = target: Gal3S6S(b1-4)GlcNAc
# Summary of the method: as §1
# [10] = target: Gal3S6S(b1-4)GlcNAc6S
# Summary of the method: as §1
# [11] = target: Gal4S(b1-4)GlcNAc
# Summary of the method: as §1
# [12] = target: Gal4S6S(b1-4)GlcNAc
# Summary of the method: as §1
# [13] = target: Gal6P(b1-4)GlcNAc
# Summary of the method: as §1
# [14] = target: Gal6S(b1-3)GlcNAc
# Summary of the method: as §1
# [15] = target: Gal6S(b1-3)GlcNAc6S
# Summary of the method: as §1
# [16] = target: Gal6S(b1-4)Glc
# Summary of the method: as §1
# [17] = target: Gal6S(b1-4)Glc6S
# Summary of the method: as §1
# [18] = target: Gal6S(b1-4)GlcNAc
# Summary of the method: as §1
# [19] = target: Gal6S(b1-4)GlcNAc6S
# Summary of the method: as §1
# [20] = target: GalNAc(a1-3)Gal
# Summary of the method: as §1
# [21] = target: GalNAc(a1-3)GalNAc
# Summary of the method: as §1
# [22] = target: GalNAc(a1-3)GalNAc(b1-3)Gal(a1-4)Gal(b1-4)Glc
# Summary of the method: as §1
# [23] = target: GalNAc(a1-3)GalNAc(b1-3)Gal(a1-4)Gal(b1-4)GlcNAc
# Summary of the method: as §1
# [24] = target: GalNAc(b1-3)Gal
# Summary of the method: as §1
# [25] = target: GalNAc(b1-3)Gal(a1-4)Gal(b1-4)GlcNAc
# Summary of the method: as §1
# [26] = target: GalNAc(b1-3)Gal(a1-4)Gal(b1-4)GlcNAc(b1-3)Gal(b1-4)Glc
# Summary of the method: as §1
# [27] = target: GalNAc(b1-3)Gal(a1-6)Gal(b1-4)Glc
# Summary of the method: as §1
# [28] = target: GalNAc(b1-3)GalNAc
# Summary of the method: as §1
# [29] = target: GalNAc(b1-3)GlcNAc
# Summary of the method: as §1
# [30] = target: GalNAc(b1-4)Gal(b1-4)Glc
# Summary of the method: as §1
# [31] = target: GalNAc(b1-4)GlcNAc
# Summary of the method: as §1
# [32] = target: GalNAc(b1-4)GlcNAc(b1-2)Man
# Summary of the method: as §1
# [33] = target: GalNAc(b1-4)GlcNAc(b1-2)Man(a1-3)[GalNAc(b1-4)GlcNAc(b1-2)Man(a1-6)]Man(b1-4)GlcNAc(b1-4)GlcNAc
# Summary of the method: as §1
# [34] = target: GalNAc(b1-4)GlcNAc(b1-3)GalNAc(b1-4)GlcNAc
# Summary of the method: as §1
# [35] = target: GalNAc(b1-4)GlcNAc6S
# Summary of the method: as §1
# [36] = target: GalNAc(b1-6)GalNAc
# Summary of the method: as §1
# [37] = target: GalNAc3S(b1-4)GlcNAc
# Summary of the method: as §1
# [38] = target: GalNAc3S(b1-4)GlcNAc3S
# Summary of the method: as §1
# [39] = target: GalNAc3S(b1-4)[Fuc(a1-3)]GlcNAc
# Summary of the method: as §1
# [40] = target: GalNAc4S6S(b1-4)GlcNAc
# Summary of the method: as §1
# [41] = target: GalNAc6S(b1-4)GlcNAc
# Summary of the method: as §1
# [42] = target: Glc(a1-4)Glc
# Summary of the method: as §1
# [43] = target: Glc(a1-4)Glc(a1-4)Glc(a1-4)Glc
# Summary of the method: as §1
# [44] = target: Glc(a1-6)Glc(a1-6)Glc
# Summary of the method: as §1
# [45] = target: Glc(a1-6)Glc(a1-6)Glc(a1-6)Glc
# Summary of the method: as §1
binder,measurement,setting,value
B1,glycan array binding signal (z-score),[1],1.86
same,glycan array binding signal (z-score),[2],-0.193
same,glycan array binding signal (z-score),[3],0.778
same,glycan array binding signal (z-score),[4],-0.014
same,glycan array binding signal (z-score),[5],0.797
same,glycan array binding signal (z-score),[6],1.19
same,glycan array binding signal (z-score),[7],0.474
same,glycan array binding signal (z-score),[8],-0.528
same,glycan array binding signal (z-score),[9],2.2
same,glycan array binding signal (z-score),[10],0.562
same,glycan array binding signal (z-score),[11],-0.639
same,glycan array binding signal (z-score),[12],1.6
same,glycan array binding signal (z-score),[13],0.437
same,glycan array binding signal (z-score),[14],-0.431
same,glycan array binding signal (z-score),[15],-1.2
same,glycan array binding signal (z-score),[16],0.269
same,glycan array binding signal (z-score),[17],-0.905
same,glycan array binding signal (z-score),[18],-0.415
same,glycan array binding signal (z-score),[19],-0.761
same,glycan array binding signal (z-score),[20],-0.188
same,glycan array binding signal (z-score),[21],0.218
same,glycan array binding signal (z-score),[22],-0.199
same,glycan array binding signal (z-score),[23],-0.011
same,glycan array binding signal (z-score),[24],-0.713
same,glycan array binding signal (z-score),[25],0.13
same,glycan array binding signal (z-score),[26],-1.03
same,glycan array binding signal (z-score),[27],-0.338
same,glycan array binding signal (z-score),[28],-1.06
same,glycan array binding signal (z-score),[29],-0.587
same,glycan array binding signal (z-score),[30],-0.107
same,glycan array binding signal (z-score),[31],-0.224
same,glycan array binding signal (z-score),[32],-0.109
same,glycan array binding signal (z-score),[33],4.51
same,glycan array binding signal (z-score),[34],-0.309
same,glycan array binding signal (z-score),[35],0.149
same,glycan array binding signal (z-score),[36],-1.22
same,glycan array binding signal (z-score),[37],1.87
same,glycan array binding signal (z-score),[38],0.637
same,glycan array binding signal (z-score),[39],1.46
same,glycan array binding signal (z-score),[40],0.557
same,glycan array binding signal (z-score),[41],-0.027
same,glycan array binding signal (z-score),[42],-0.141
same,glycan array binding signal (z-score),[43],0.791
same,glycan array binding signal (z-score),[44],-0.293
same,glycan array binding signal (z-score),[45],0.691
